Test system: mSWI/SNF complexes
Assay: mSWI/SNF complex purification with HA-tagged baits and mass spectrometry (peptide counts)
Design: species or system human
[1] = 293_HA-BRD7 bait purification, mass spectrometry, total peptides per co-purified protein
[2] = 293_HA-BRD7 bait purification, mass spectrometry, unique peptides per co-purified protein

Molecule | Total [1] | Unique [2] | Total (293_HA-BRD7: HA-BRD7 bait purification, total peptide count per co-purified protein) | Unique (293_HA-BRD7: HA-BRD7 bait purification, unique peptide count per co-purified protein)
FUS (protein, UniProt P35637 1-526, looked up) RNA-binding protein FUS: MASNDYTQQATQSYGAYPTQPGQGYSQQSSQPYGQQSYSGYSQSTDTSGYGQSSYSSYGQSQNTGYGTQSTPQGYGSTGGYGSSQSSQSSYGQQSSYPGYGQQPAPSSTSGSYGSSSQSSSYGQPQSGSYSQQPSYGGQQQSYGQQQSYNPPQGYGQQNQYNSSSGGGGGGGGGGNYGQDQSSMSSGGGSGGGYGNQDQSGGGGSGGYGQQDRGGRGRGGSGGGGGGGGGGYNRSSGGYEPRGRGGGRGGRGGMGGSDRGGFNKFGGPRDQGSRHDSEQDNSDNNTIFVQGLGENVTIESVADYFKQIGIIKTNKKTGQPMINLYTDRETGKLKGEATVSFDDPPSAKAAIDWFDGKEFSGNPIKVSFATRRADFNRGGGNGRGGRGRGGPMGRGGYGGGGSGGGGRGGFPSGGGGGGGQQRAGDWKCPNPTCENMNFSWRNECNQCKAPKPDGPGGGPGGSHMGGNYGDDRRGGRGGYDRGGYRGRGGDRGGFRGGRGGGDRGGFGPGKMDSRGEHRQDRRERPY | 4 | 4 | – | –
SHMT2 (protein, UniProt P34897 30-504, looked up) Serine …: NAAQTQTGEANRGWTGQESLSDSDPEMWELLQREKDRQCRGLELIASENFCSRAALEALGSCLNNKYSEGYPGKRYYGGAEVVDEIELLCQRRALEAFDLDPAQWGVNVQPYSGSPANLAVYTALLQPHDRIMGLDLPDGGHLTHGYMSDVKRISATSIFFESMPYKLNPKTGLIDYNQLALTARLFRPRLIIAGTSAYARLIDYARMREVCDEVKAHLLADMAHISGLVAAKVIPSPFKHADIVTTTTHKTLRGARSGLIFYRKGVKAVDPKTGREIPYTFEDRINFAVFPSLQGGPHNHAIAAVAVALKQACTPMFREYSLQVLKNARAMADALLERGYSLVSGGTDNHLVLVDLRPKGLDGARAERVLELVSITANKNTCPGDRSAITPGGLRLGAPALTSRQFREDDFRRVVDFIDEGVNIGLEVKSKTAKLQDFKSFLLKDSETSQRLANLRQRVEQFARAFPMPGFDEH | 4 | 4 | – | –
GTF2I (protein, UniProt P78347 2-998, looked up) General transcription factor …: AQVAMSTLPVEDEESSESRMVVTFLMSALESMCKELAKSKAEVACIAVYETDVFVVGTERGRAFVNTRKDFQKDFVKYCVEEEEKAAEMHKMKSTTQANRMSVDAVEIETLRKTVEDYFCFCYGKALGKSTVVPVPYEKMLRDQSAVVVQGLPEGVAFKHPENYDLATLKWILENKAGISFIIKRPFLEPKKHVGGRVMVTDADRSILSPGGSCGPIKVKTEPTEDSGISLEMAAVTVKEESEDPDYYQYNIQAGPSETDDVDEKQPLSKPLQGSHHSSEGNEGTEMEVPAEDSTQHVPSETSEDPEVEVTIEDDDYSPPSKRPKANELPQPPVPEPANAGKRKVREFNFEKWNARITDLRKQVEELFERKYAQAIKAKGPVTIPYPLFQSHVEDLYVEGLPEGIPFRRPSTYGIPRLERILLAKERIRFVIKKHELLNSTREDLQLDKPASGVKEEWYARITKLRKMVDQLFCKKFAEALGSTEAKAVPYQKFEAHPNDLYVEGLPENIPFRSPSWYGIPRLEKIIQVGNRIKFVIKRPELLTHSTTEVTQPRTNTPVKEDWNVRITKLRKQVEEIFNLKFAQALGLTEAVKVPYPVFESNPEFLYVEGLPEGIPFRSPTWFGIPRLERIVRGSNKIKFVVKKPELVISYLPPGMASKINTKALQSPKRPRSPGSNSKVPEIEVTVEGPNNNNPQTSAVRTPTQTNGSNVPFKPRGREFSFEAWNAKITDLKQKVENLFNEKCGEALGLKQAVKVPFALFESFPEDFYVEGLPEGVPFRRPSTFGIPRLEKILRNKAKIKFIIKKPEMFETAIKESTSSKSPPRKINSSPNVNTTASGVEDLNIIQVTIPDDDNERLSKVEKARQLREQVNDLFSRKFGEAIGMGFPVKVPYRKITINPGCVVVDGMPPGVSFKAPSYLEISSMRRILDSAEFIKFTVIRPFPGLVINNQLVDQSESEGPVIQESAEPSQLEVPATEEIKETDGSSQIKQEPDPTW | 4 | 4 | – | –
SUCLA2 (protein, UniProt Q9P2R7 53-463, looked up) Succinate--CoA ligase …: LSLHEYMSMELLQEAGVSVPKGYVAKSPDEAYAIAKKLGSKDVVIKAQVLAGGRGKGTFESGLKGGVKIVFSPEEAKAVSSQMIGKKLFTKQTGEKGRICNQVLVCERKYPRREYYFAITMERSFQGPVLIGSSHGGVNIEDVAAESPEAIIKEPIDIEEGIKKEQALQLAQKMGFPPNIVESAAENMVKLYSLFLKYDATMIEINPMVEDSDGAVLCMDAKINFDSNSAYRQKKIFDLQDWTQEDERDKDAAKANLNYIGLDGNIGCLVNGAGLAMATMDIIKLHGGTPANFLDVGGGATVHQVTEAFKLITSDKKVLAILVNIFGGIMRCDVIAQGIVMAVKDLEIKIPVVVRLQGTRVDDAKALIADSGLKILACDDLDEAARMVVKLSEIVTLAKQAHVDVKFQLPI | 4 | 4 | – | –
PGAM5 (protein, UniProt Q96HS1 1-289, looked up) Serine/threonine-protein …: MAFRQALQLAACGLAGGSAAVLFSAVAVGKPRAGGDAEPRPAEPPAWAGGARPGPGVWDPNWDRREPLSLINVRKRNVESGEEELASKLDHYKAKATRHIFLIRHSQYHVDGSLEKDRTLTPLGREQAELTGLRLASLGLKFNKIVHSSMTRAIETTDIISRHLPGVCKVSTDLLREGAPIEPDPPVSHWKPEAVQYYEDGARIEAAFRNYIHRADARQEEDSYEIFICHANVIRYIVCRALQFPPEGWLRLSLNNGSITHLVIRPNGRVALRTLGDTGFMPPDKITRS | 4 | 4 | – | –
SURF6 (protein, UniProt O75683 1-361, looked up) Surfeit locus protein 6: MASLLAKDAYLQSLAKKICSHSAPEQQARTRAGKTQGSETAGPPKKKRKKTQKKFRKREEKAAEHKAKSLGEKSPAASGARRPEAAKEEAAWASSSAGNPADGLATEPESVFALDVLRQRLHEKIQEARGQGSAKELSPAALEKRRRRKQERDRKKRKRKELRAKEKARKAEEATEAQEVVEATPEGACTEPREPPGLIFNKVEVSEDEPASKAQRRKEKRQRVKGNLTPLTGRNYRQLLERLQARQSRLDELRGQDEGKAQELEAKMKWTNLLYKAEGVKIRDDERLLQEALKRKEKRRAQRQRRWEKRTAGVVEKMQQRQDRRRQNLRRKKAARAERRLLRARKKGRILPQDLERAGLV | 4 | 4 | – | –
NUSAP1 (protein, UniProt Q9BXS6 1-441, looked up) Nucleolar and …: MIIPSLEELDSLKYSDLQNLAKSLGLRANLRATKLLKALKGYIKHEARKGNENQDESQTSASSCDETEIQISNQEEAERQPLGHVTKTRRRCKTVRVDPDSQQNHSEIKISNPTEFQNHEKQESQDLRATAKVPSPPDEHQEAENAVSSGNRDSKVPSEGKKSLYTDESSKPGKNKRTAITTPNFKKLHEAHFKEMESIDQYIERKKKHFEEHNSMNELKQQPINKGGVRTPVPPRGRLSVASTPISQRRSQGRSCGPASQSTLGLKGSLKRSAISAAKTGVRFSAATKDNEHKRSLTKTPARKSAHVTVSGGTPKGEAVLGTHKLKTITGNSAAVITPFKLTTEATQTPVSNKKPVFDLKASLSRPLNYEPHKGKLKPWGQSKENNYLNQHVNRINFYKKTYKQPHLQTKEEQRKKREQERKEKKAKVLGMRRGLILAED | 4 | 4 | – | –
STT3A (protein, UniProt P46977 1-705, looked up) Dolichyl-diphosphooligosacchar …: MTKFGFLRLSYEKQDTLLKLLILSMAAVLSFSTRLFAVLRFESVIHEFDPYFNYRTTRFLAEEGFYKFHNWFDDRAWYPLGRIIGGTIYPGLMITSAAIYHVLHFFHITIDIRNVCVFLAPLFSSFTTIVTYHLTKELKDAGAGLLAAAMIAVVPGYISRSVAGSYDNEGIAIFCMLLTYYMWIKAVKTGSICWAAKCALAYFYMVSSWGGYVFLINLIPLHVLVLMLTGRFSHRIYVAYCTVYCLGTILSMQISFVGFQPVLSSEHMAAFGVFGLCQIHAFVDYLRSKLNPQQFEVLFRSVISLVGFVLLTVGALLMLTGKISPWTGRFYSLLDPSYAKNNIPIIASVSEHQPTTWSSYYFDLQLLVFMFPVGLYYCFSNLSDARIFIIMYGVTSMYFSAVMVRLMLVLAPVMCILSGIGVSQVLSTYMKNLDISRPDKKSKKQQDSTYPIKNEVASGMILVMAFFLITYTFHSTWVTSEAYSSPSIVLSARGGDGSRIIFDDFREAYYWLRHNTPEDAKVMSWWDYGYQITAMANRTILVDNNTWNNTHISRVGQAMASTEEKAYEIMRELDVSYVLVIFGGLTGYSSDDINKFLWMVRIGGSTDTGKHIKENDYYTPTGEFRVDREGSPVLLNCLMYKMCYYRFGQVYTEAKRPPGFDRVRNAEIGNKDFELDVLEEAYTTEHWLVRIYKVKDLDNRGLSRT | 4 | 4 | – | –
SRP14 (protein, UniProt P37108 2-136, looked up) Signal recognition particle …: VLLESEQFLTELTRLFQKCRTSGSVYITLKKYDGRTKPIPKKGTVEGFEPADNKCLLRATDGKKKISTVVSSKEVNKFQMAYSNLLRANMDGLKKRDKKNKTKKTKAAAAAAAAAPAAAATAPTTAATTAATAAQ | 4 | 4 | – | –
U2AF1 (protein, UniProt Q01081 2-240, looked up) Splicing factor U2AF 35 kDa …: AEYLASIFGTEKDKVNCSFYFKIGACRHGDRCSRLHNKPTFSQTIALLNIYRNPQNSSQSADGLRCAVSDVEMQEHYDEFFEEVFTEMEEKYGEVEEMNVCDNLGDHLVGNVYVKFRREEDAEKAVIDLNNRWFNGQPIHAELSPVTDFREACCRQYEMGECTRGGFCNFMHLKPISRELRRELYGRRRKKHRSRSRSRERRSRSRDRGRGGGGGGGGGGGGRERDRRRSRDRERSGRF | 15 | 3 | – | –
HADH (protein, UniProt Q16836 13-314, looked up) Hydroxyacyl-coenzyme A …: SSSSTASASAKKIIVKHVTVIGGGLMGAGIAQVAAATGHTVVLVDQTEDILAKSKKGIEESLRKVAKKKFAENLKAGDEFVEKTLSTIATSTDAASVVHSTDLVVEAIVENLKVKNELFKRLDKFAAEHTIFASNTSSLQITSIANATTRQDRFAGLHFFNPVPVMKLVEVIKTPMTSQKTFESLVDFSKALGKHPVSCKDTPGFIVNRLLVPYLMEAIRLYERGDASKEDIDTAMKLGAGYPMGPFELLDYVGLDTTKFIVDGWHEMDAENPLHQPSPSLNKLVAENKFGKKTGEGFYKYK | 5 | 3 | – | –
KRT10 (protein, UniProt P13645 1-584, looked up) Keratin, type I cytoskeletal …: MSVRYSSSKHYSSSRSGGGGGGGGCGGGGGVSSLRISSSKGSLGGGFSSGGFSGGSFSRGSSGGGCFGGSSGGYGGLGGFGGGSFRGSYGSSSFGGSYGGIFGGGSFGGGSFGGGSFGGGGFGGGGFGGGFGGGFGGDGGLLSGNEKVTMQNLNDRLASYLDKVRALEESNYELEGKIKEWYEKHGNSHQGEPRDYSKYYKTIDDLKNQILNLTTDNANILLQIDNARLAADDFRLKYENEVALRQSVEADINGLRRVLDELTLTKADLEMQIESLTEELAYLKKNHEEEMKDLRNVSTGDVNVEMNAAPGVDLTQLLNNMRSQYEQLAEQNRKDAEAWFNEKSKELTTEIDNNIEQISSYKSEITELRRNVQALEIELQSQLALKQSLEASLAETEGRYCVQLSQIQAQISALEEQLQQIRAETECQNTEYQQLLDIKIRLENEIQTYRSLLEGEGSSGGGGRGGGSFGGGYGGGSSGGGSSGGGHGGGHGGSSGGGYGGGSSGGGSSGGGYGGGSSSGGHGGSSSGGYGGGSSGGGGGGYGGGSSGGGSSSGGGYGGGSSSGGHKSSSSGSVGESSSKGPRY | – | – | 31 | 25
